Measured values published in article PMC6265327.
These are yes or no findings as the source states them, for the method shown. Some binding calls cover weakened binding; strength is not graded here. Where a sequence is shown, tags or fusion partners need not be part of it.

Target: T1, C-terminal Pol2 (C-Pol2), the Pol2 chain of Pol epsilon deltacat (yeast (strains based on W303)) (UniProt P21951)
T1 sequence: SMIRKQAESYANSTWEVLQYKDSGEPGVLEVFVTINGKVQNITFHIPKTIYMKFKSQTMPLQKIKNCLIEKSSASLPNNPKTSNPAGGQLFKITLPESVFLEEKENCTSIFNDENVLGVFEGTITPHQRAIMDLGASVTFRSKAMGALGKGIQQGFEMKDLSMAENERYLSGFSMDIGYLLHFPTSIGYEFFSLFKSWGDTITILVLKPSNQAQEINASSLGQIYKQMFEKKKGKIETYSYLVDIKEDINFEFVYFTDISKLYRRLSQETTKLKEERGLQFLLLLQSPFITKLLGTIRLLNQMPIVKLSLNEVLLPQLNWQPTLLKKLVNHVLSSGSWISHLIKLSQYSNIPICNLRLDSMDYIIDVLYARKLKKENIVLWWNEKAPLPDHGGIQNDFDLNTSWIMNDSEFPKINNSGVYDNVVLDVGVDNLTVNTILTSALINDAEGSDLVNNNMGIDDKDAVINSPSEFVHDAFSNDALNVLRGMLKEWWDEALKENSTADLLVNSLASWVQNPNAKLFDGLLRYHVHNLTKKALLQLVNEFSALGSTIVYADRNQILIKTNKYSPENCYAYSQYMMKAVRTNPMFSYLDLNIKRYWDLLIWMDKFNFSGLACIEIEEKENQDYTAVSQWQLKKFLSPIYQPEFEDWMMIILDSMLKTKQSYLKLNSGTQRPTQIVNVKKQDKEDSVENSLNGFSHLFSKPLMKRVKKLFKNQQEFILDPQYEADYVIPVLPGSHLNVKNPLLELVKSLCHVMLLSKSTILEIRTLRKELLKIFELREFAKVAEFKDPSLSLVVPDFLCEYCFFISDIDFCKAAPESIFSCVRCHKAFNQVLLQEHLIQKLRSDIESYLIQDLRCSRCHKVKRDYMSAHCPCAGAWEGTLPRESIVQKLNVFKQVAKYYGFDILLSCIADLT
Assay: cryo-EM structure; purified Pol epsilon deltacat (C-Pol2, Dpb2, Dpb3, Dpb4) crosslinked with 0.01% glutaraldehyde on ice; Volta phase plate, Falcon III; 4.45 Å; both purified

B1: Dpb2, subunit of the CBP-tagged Pol epsilon complexes (deltacat and exo-) (protein, UniProt P24482 1-689)
chain: MFGSGNVLPVKIQPPLLRPLAYRVLSRKYGLSIKSDGLSALAEFVGTNIGANWRQGPATIKFLEQFAAVWKQQERGLFIDQSGVKEVIQEMKEREKVEWSHEHPIQHEENILGRTDDDENNSDDEMPIAADSSLQNVSLSSPMRQPTERDEYKQPFKPESSKALDWRDYFKVINASQQQRFSYNPHKMQFIFVPNKKQNGLGGIAGFLPDIEDKVQMFLTRYYLTNDRVMRNENFQNSDMFNPLSSMVSLQNELSNTNRQQQSSSMSITPIKNLLGRDAQNFLLLGLLNKNFKGNWSLEDPSGSVEIDISQTIPTQGHYYVPGCMVLVEGIYYSVGNKFHVTSMTLPPGERREITLETIGNLDLLGIHGISNNNFIARLDKDLKIRLHLLEKELTDHKFVILGANLFLDDLKIMTALSKILQKLNDDPPTLLIWQGSFTSVPVFASMSSRNISSSTQFKNNFDALATLLSRFDNLTENTTMIFIPGPNDLWGSMVSLGASGTLPQDPIPSAFTKKINKVCKNVVWSSNPTRIAYLSQEIVIFRDDLSGRFKRHRLEFPFNESEDVYTENDNMMSKDTDIVPIDELVKEPDQLPQKVQETRKLVKTILDQGHLSPFLDSLRPISWDLDHTLTLCPIPSTMVLCDTTSAQFDLTYNGCKVINPGSFIHNRRARYMEYVPSSKKTIQEEIYI
  binding: binds
